Results are given in words; binding and its absence hold for the method and conditions named. Binding seen in cells or lysates may run through a third protein. Some entries that bind do so weakly or less than the wild type.
Molecular target: T1, Endogenous DDX11 (human (endogenous in HEK293T)) (UniProt Q96FC9)
T1 sequence: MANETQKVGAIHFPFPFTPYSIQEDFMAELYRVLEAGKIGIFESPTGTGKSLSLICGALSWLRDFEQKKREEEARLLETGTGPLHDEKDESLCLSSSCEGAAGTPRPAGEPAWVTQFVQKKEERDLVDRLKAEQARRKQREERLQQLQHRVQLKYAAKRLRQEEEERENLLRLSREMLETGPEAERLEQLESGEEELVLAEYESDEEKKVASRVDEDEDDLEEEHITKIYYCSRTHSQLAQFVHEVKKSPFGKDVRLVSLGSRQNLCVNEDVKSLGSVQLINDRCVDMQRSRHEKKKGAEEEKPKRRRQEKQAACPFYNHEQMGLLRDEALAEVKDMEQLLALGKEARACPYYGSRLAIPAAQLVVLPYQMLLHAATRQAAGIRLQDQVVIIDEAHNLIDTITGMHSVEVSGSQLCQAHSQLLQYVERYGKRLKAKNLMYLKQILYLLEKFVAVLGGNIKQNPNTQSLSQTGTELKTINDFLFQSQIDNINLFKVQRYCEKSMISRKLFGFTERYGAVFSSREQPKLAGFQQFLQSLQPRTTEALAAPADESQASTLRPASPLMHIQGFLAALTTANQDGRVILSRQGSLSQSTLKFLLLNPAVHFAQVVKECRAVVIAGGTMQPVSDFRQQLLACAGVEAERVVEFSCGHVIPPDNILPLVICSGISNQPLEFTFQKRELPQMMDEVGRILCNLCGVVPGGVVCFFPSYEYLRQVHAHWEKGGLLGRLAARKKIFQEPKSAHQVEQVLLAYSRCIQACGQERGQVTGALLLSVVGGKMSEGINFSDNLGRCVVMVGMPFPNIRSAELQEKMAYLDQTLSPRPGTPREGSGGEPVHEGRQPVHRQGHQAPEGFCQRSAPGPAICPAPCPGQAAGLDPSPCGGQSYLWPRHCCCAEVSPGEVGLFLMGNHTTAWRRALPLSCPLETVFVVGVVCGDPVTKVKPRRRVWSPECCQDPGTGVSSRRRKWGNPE
Assay: co-IP; endogenous proteins; HEK293T uninfected or infected with SeV for 12 h; immunoprecipitation with anti-DDX11 antibody, IgG as negative control; western blot

Amino acid sequences for entries named in this document (tags omitted).
UniProt Q7Z434: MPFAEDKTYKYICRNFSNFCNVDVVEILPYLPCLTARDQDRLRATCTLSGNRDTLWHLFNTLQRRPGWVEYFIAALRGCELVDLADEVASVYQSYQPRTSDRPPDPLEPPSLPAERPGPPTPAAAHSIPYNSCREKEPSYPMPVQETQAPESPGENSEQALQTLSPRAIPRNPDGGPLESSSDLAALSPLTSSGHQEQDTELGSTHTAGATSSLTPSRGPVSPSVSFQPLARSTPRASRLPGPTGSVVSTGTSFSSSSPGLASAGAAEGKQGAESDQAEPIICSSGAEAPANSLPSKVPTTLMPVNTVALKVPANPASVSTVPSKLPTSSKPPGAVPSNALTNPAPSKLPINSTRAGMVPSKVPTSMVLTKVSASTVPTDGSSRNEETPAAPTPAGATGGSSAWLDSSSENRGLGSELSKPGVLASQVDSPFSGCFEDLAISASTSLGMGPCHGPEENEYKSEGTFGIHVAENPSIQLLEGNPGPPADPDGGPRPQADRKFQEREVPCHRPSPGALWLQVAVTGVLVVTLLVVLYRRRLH

Endogenous MAVS (from UniProt Q7Z434 1-540)
binding: binds

B1: Endogenous RIG-I (protein, UniProt O95786 1-925)
chain: MTTEQRRSLQAFQDYIRKTLDPTYILSYMAPWFREEEVQYIQAEKNNKGPMEAATLFLKFLLELQEEGWFRGFLDALDHAGYSGLYEAIESWDFKKIEKLEEYRLLLKRLQPEFKTRIIPTDIISDLSECLINQECEEILQICSTKGMMAGAEKLVECLLRSDKENWPKTLKLALEKERNKFSELWIVEKGIKDVETEDLEDKMETSDIQIFYQEDPECQNLSENSCPPSEVSDTNLYSPFKPRNYQLELALPAMKGKNTIICAPTGCGKTFVSLLICEHHLKKFPQGQKGKVVFFANQIPVYEQQKSVFSKYFERHGYRVTGISGATAENVPVEQIVENNDIIILTPQILVNNLKKGTIPSLSIFTLMIFDECHNTSKQHPYNMIMFNYLDQKLGGSSGPLPQVIGLTASVGVGDAKNTDEALDYICKLCASLDASVIATVKHNLEELEQVVYKPQKFFRKVESRISDKFKYIIAQLMRDTESLAKRICKDLENLSQIQNREFGTQKYEQWIVTVQKACMVFQMPDKDEESRICKALFLYTSHLRKYNDALIISEHARMKDALDYLKDFFSNVRAAGFDEIEQDLTQRFEEKLQELESVSRDPSNENPKLEDLCFILQEEYHLNPETITILFVKTRALVDALKNWIEGNPKLSFLKPGILTGRGKTNQNTGMTLPAQKCILDAFKASGDHNILIATSVADEGIDIAQCNLVILYEYVGNVIKMIQTRGRGRARGSKCFLLTSNAGVIEKEQINMYKEKMMNDSILRLQTWDEAVFREKILHIQTHEKFIRDSQEKPKPVPDKENKKLLCRKCKALACYTADVRVIEECHYTVLGDAFKECFVSRPHPKPKQFSSFEKRAKIFCARQNCSHDWGIHVKYKTFEIPVIKIESFVVEDIATGVQTLYSKWKDFHFEKIPFDPAEMSK
binding: binds

Reference: PMC11633105
